# Results taken from the supplement of paper PMC7661543.
# ± gives the standard deviation of the averaged measurements. The effect of the compound repeats well; differences between the knockouts mostly do not. Where a SMILES comes first, the peptide text is derived from it. The star is where a group is joined. Cbz = O=C(OCc1ccccc1)*
# Tested on: ZR-75-1
# Assay: relative cell number vs DMSO control (72 h) (% of DMSO); higher = less growth inhibition (more cells)
# Method: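 QMAP-Seq: a pool of 5 breast cancer cell lines (ZR-75-1, SKBR3, HCC-38, MDA-MB-231, BT-20), each carrying 12 doxycycline-inducible Cas9 sgRNA perturbations (11 knockouts plus non-targeting sgNT), was treated with compounds for 72 h at four 10-fold doses (10 nM-10 uM or 1 nM-1 uM range). Barcodes were amplified and sequenced, and cell number was interpolated from 293T spike-in standard curves. The result is expressed as % of the median of DMSO wells. Two biological replicates.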
# [1] = sgRNA knockout: sgATF3, 1000 nM
# [2] = sgRNA knockout: sgATF3, 10000 nM
# [3] = sgRNA knockout: sgATF4, 1000 nM
# [4] = sgRNA knockout: sgATF4, 10000 nM
# [5] = sgRNA knockout: sgATF6, 1000 nM
# [6] = sgRNA knockout: sgATF6, 10000 nM
# [7] = sgRNA knockout: sgATG7, 1000 nM
# [8] = sgRNA knockout: sgATG7, 10000 nM
# [9] = sgRNA knockout: sgERN1, 1000 nM
# [10] = sgRNA knockout: sgERN1, 10000 nM
# [11] = sgRNA knockout: sgHSF2, 1000 nM
# [12] = sgRNA knockout: sgHSF2, 10000 nM
# [13] = sgRNA knockout: sgNFE2L2, 10 nM
# [14] = sgRNA knockout: sgNFE2L2, 100 nM
# [15] = sgRNA knockout: sgNFE2L2, 1000 nM
# [16] = sgRNA knockout: sgNFE2L2, 10000 nM
# [17] = sgRNA knockout: sgSLC35F2, 10 nM
# [18] = sgRNA knockout: sgSLC35F2, 100 nM
# [19] = sgRNA knockout: sgSLC35F2, 1000 nM
# [20] = sgRNA knockout: sgSLC35F2, 10000 nM
# [21] = sgRNA knockout: sgXBP1, 1000 nM
# [22] = sgRNA knockout: sgXBP1, 10000 nM
SMILES,"relative cell number (sgRNA knockout: sgATF3, 10 nM)","relative cell number (sgRNA knockout: sgATF3, 100 nM)",relative cell number [1],relative cell number [2],"relative cell number (sgRNA knockout: sgATF4, 10 nM)","relative cell number (sgRNA knockout: sgATF4, 100 nM)",relative cell number [3],relative cell number [4],"relative cell number (sgRNA knockout: sgATF6, 10 nM)","relative cell number (sgRNA knockout: sgATF6, 100 nM)",relative cell number [5],relative cell number [6],"relative cell number (sgRNA knockout: sgATG7, 10 nM)","relative cell number (sgRNA knockout: sgATG7, 100 nM)",relative cell number [7],relative cell number [8],"relative cell number (sgRNA knockout: sgERN1, 10 nM)","relative cell number (sgRNA knockout: sgERN1, 100 nM)",relative cell number [9],relative cell number [10],"relative cell number (sgRNA knockout: sgHSF2, 10 nM)","relative cell number (sgRNA knockout: sgHSF2, 100 nM)",relative cell number [11],relative cell number [12],relative cell number [13],relative cell number [14],relative cell number [15],relative cell number [16],relative cell number [17],relative cell number [18],relative cell number [19],relative cell number [20],"relative cell number (sgRNA knockout: sgXBP1, 10 nM)","relative cell number (sgRNA knockout: sgXBP1, 100 nM)",relative cell number [21],relative cell number [22]
Cc1cc2c(F)c(Oc3ncnn4cc(OC[C@@H](C)O)c(C)c34)ccc2[nH]1 [Brivanib],83.9 ± 10,118 ± 21,85 ± 1.2,38.7 ± 8.9,120 ± 30,64.2 ± 3.4,96.9 ± 36,63.6 ± 1.6,133 ± 37,118 ± 88,92.35 ± 0.61,41.1 ± 15,118 ± 29,67 ± 13,84.3 ± 22,48.2 ± 9,106.2 ± 0.89,105 ± 6.9,86.1 ± 43,52.4 ± 21,89.7 ± 25,100 ± 55,88.6 ± 13,54.9 ± 14,93.6 ± 8.9,110 ± 23,94.2 ± 8.1,47.28 ± 0.29,58.1 ± 5.8,106 ± 22,95.5 ± 42,40.4 ± 11,103 ± 3.1,106 ± 14,99.9 ± 13,54.4 ± 7.5
OCCn1cc(-c2ccc3c(c2)CC/C3=N\O)c(-c2ccncc2)n1 [GDC0879],120 ± 6,102 ± 26,133 ± 32,138 ± 11,103 ± 46,118 ± 23,136 ± 22,164 ± 32,79.9 ± 17,77.5 ± 17,157 ± 44,120 ± 22,114 ± 29,84.7 ± 3.8,101 ± 52,130 ± 30,91.1 ± 1,139 ± 20,120 ± 13,115 ± 6,121.1 ± 0.8,118 ± 9.5,126 ± 14,106 ± 3.8,125 ± 42,145 ± 13,145 ± 2.3,145 ± 15,91.2 ± 23,116 ± 7.9,135.97 ± 0.09,88.3 ± 17,98.5 ± 24,119 ± 19,123 ± 11,110 ± 9.6
CC(C)C[C@@H](C=O)NC(=O)[C@H](CC(C)C)NC(=O)[C@H](CC(C)C)NC(=O)OCc1ccccc1 [MG132] (Cbz-Leu-Leu-Leu-aldehyde),103 ± 14,103 ± 28,28.8 ± 12,11.4 ± 3.6,64.1 ± 18,101 ± 20,34.4 ± 12,5.7 ± 3.7,89.7 ± 43,67.7 ± 9.3,36.7 ± 7.6,10.2 ± 5.1,78.37 ± 0.65,131 ± 26,24.8 ± 1.5,11.5 ± 1.6,108 ± 21,121 ± 19,32.3 ± 6.9,11 ± 0.72,113.2 ± 1.1,129 ± 23,27 ± 12,8.95 ± 0.53,107.2 ± 0.38,96.6 ± 37,25.4 ± 6.2,10.4 ± 0.86,88 ± 17,109 ± 16,15.2 ± 3.4,5.34 ± 4.5,80.8 ± 19,107.2 ± 0.13,23.9 ± 2.5,9.53 ± 0.51
O=C(O)CC[C@H]1CC[C@@](c2cc(F)ccc2F)(S(=O)(=O)c2ccc(Cl)cc2)CC1 [MK0752],139 ± 67,125 ± 12,124 ± 10,120 ± 34,165 ± 49,111.9 ± 1,133 ± 24,130 ± 4.9,108 ± 18,112 ± 9.9,132 ± 9,105 ± 24,137 ± 74,103 ± 33,119 ± 5.5,101 ± 19,120 ± 33,112 ± 22,112 ± 5,96.98 ± 0.19,141 ± 43,108 ± 7.7,126 ± 1.7,117 ± 27,147 ± 28,131 ± 14,130 ± 48,108 ± 1.6,172 ± 29,131 ± 36,123 ± 13,156 ± 43,119 ± 44,110 ± 1.9,124 ± 2.7,92.6 ± 18
COc1cc(CCc2cc(NC(=O)c3ccc(N4CC(C)NC(C)C4)cc3)n[nH]2)cc(OC)c1 (configuration not stated) [AZD4547],99 ± 18,82.5 ± 30,85.1 ± 15,30.3 ± 1.6,80 ± 33,76.4 ± 14,107 ± 31,26.9 ± 16,85.5 ± 0.58,107 ± 17,108 ± 62,29.1 ± 4.3,95.8 ± 14,69.03 ± 0.41,95 ± 2.7,15.2 ± 2.5,68 ± 23,90.4 ± 9.1,84.1 ± 18,33.5 ± 7.8,89.6 ± 23,90 ± 30,90.6 ± 11,34.8 ± 2.9,111 ± 30,87.96 ± 0.19,117 ± 5.1,35.1 ± 0.76,69.9 ± 11,70.6 ± 46,64.4 ± 12,34.8 ± 6.5,91.3 ± 5.6,83.3 ± 6.8,102 ± 2.9,32.1 ± 1.8
CC(C)n1c(/C=C/C(O)CC(O)CC(=O)O)c(-c2ccc(F)cc2)c2ccccc21 (configuration not stated) [Fluvastatin],85.3 ± 17,61.6 ± 11,67.98 ± 0.28,65.3 ± 2.8,57.5 ± 3.4,81.2 ± 23,67.7 ± 31,65.8 ± 4.2,99.2 ± 23,91.4 ± 3.8,55.7 ± 3.9,89.5 ± 9.3,84.1 ± 30,71.1 ± 3.3,57.6 ± 1.9,47.8 ± 12,87.5 ± 12,77.4 ± 9.2,81.5 ± 43,75.5 ± 20,82 ± 5.2,95.2 ± 4.3,61.3 ± 13,68 ± 17,68 ± 2.6,63.9 ± 14,103 ± 22,81.5 ± 3.9,111 ± 38,49.2 ± 34,70.2 ± 17,57.1 ± 16,91.1 ± 4.2,70.1 ± 1.1,81.1 ± 20,79.1 ± 1.3
COc1cc2nc(N3CCCN(C)CC3)nc(NC3CCN(Cc4ccccc4)CC3)c2cc1OC,121 ± 21,82.6 ± 31,117 ± 27,4.76 ± 3.4,76.6 ± 19,107 ± 20,122 ± 8.1,2.43 ± 1.2,69.6 ± 5.7,106 ± 48,91.4 ± 13,2.5 ± 1.7,73.1 ± 23,112 ± 16,80.3 ± 3.8,3.32 ± 1.3,108 ± 72,79.19 ± 0.53,85.2 ± 5,3.6 ± 2.9,135 ± 8.2,119 ± 6.7,119 ± 9.6,2.73 ± 1.3,119 ± 32,88.4 ± 19,96.6 ± 16,3.11 ± 1.8,84.2 ± 21,64.8 ± 20,74.5 ± 16,3.17 ± 0.99,114 ± 26,97.7 ± 6.4,86.2 ± 4.3,2.54 ± 0.73
